# Values of other authors, collected in US20210186070A1, “STEVIA EXTRACT CONTAINING SELECTED STEVIOL GLYCOSIDES AS FLAVOR, SALTY AND SWEETNESS PROFILE MODIFIER” (PureCircle USA Inc., priority 2013, published 2021).
# Conditions: Table 1
row,Molecule,Quality of taste
1,C=C1C[C@@]23CC[C@H]4[C@@](C)(CCC[C@@]4(C)C(=O)O[C@@H]4O[C@H](CO)[C@@H](O)[C@H](O)[C@H]4O)[C@@H]2CC[C@]1(O[C@@H]1O[C@H](CO)[C@@H](O)[C@H](O)[C@H]1O[C@@H]1O[C@@H](C)[C@H](O)[C@@H](O)[C@H]1O)C3 [Dulcoside A],Very bitter
2,C=C1C[C@@]23CC[C@H]4[C@@](C)(CCC[C@@]4(C)C(=O)O[C@@H]4O[C@H](CO)[C@@H](O)[C@H](O)[C@H]4O[C@@H]4O[C@H](CO)[C@@H](O)[C@H](O)[C@H]4O)[C@@H]2CC[C@]1(O[C@@H]1O[C@H](CO)[C@@H](O)[C@H](O[C@@H]2O[C@H](CO)[C@@H](O)[C@H](O)[C@H]2O)[C@H]1O[C@@H]1O[C@H](CO)[C@@H](O)[C@H](O)[C@H]1O)C3 [Rebaudioside D],Like sucrose
3,C=C1C[C@@]23CC[C@H]4[C@@](C)(CCC[C@@]4(C)C(=O)O[C@@H]4O[C@H](CO)[C@@H](O)[C@H](O)[C@H]4O[C@@H]4O[C@H](CO)[C@@H](O)[C@H](O)[C@H]4O)[C@@H]2CC[C@]1(O[C@@H]1O[C@H](CO)[C@@H](O)[C@H](O)[C@H]1O[C@@H]1O[C@H](CO)[C@@H](O)[C@H](O)[C@H]1O)C3 [Rebaudioside E],Like sucrose
4,C=C1C[C@@]23CC[C@H]4[C@@](C)(CCC[C@@]4(C)C(=O)O[C@@H]4O[C@H](CO)[C@@H](O)[C@H](O)[C@H]4O)[C@@H]2CC[C@]1(O[C@@H]1O[C@H](CO)[C@@H](O)[C@H](O)[C@H]1O)C3 [Rubusoside],Very bitter
5,C=C1C[C@@]23CC[C@H]4[C@@](C)(CCC[C@@]4(C)C(=O)O)[C@@H]2CC[C@]1(O)C3 [Steviol],Very bitter
6,C=C1C[C@@]23CC[C@H]4[C@@](C)(CCC[C@@]4(C)C(=O)O)[C@@H]2CC[C@]1(O[C@@H]1O[C@H](CO)[C@@H](O)[C@H](O)[C@H]1O[C@@H]1O[C@H](CO)[C@@H](O)[C@H](O)[C@H]1O)C3 [Steviolbioside],Unpleasant
7,C=C1C[C@@]23CC[C@H]4[C@@](C)(CCC[C@@]4(C)C(=O)O[C@@H]4O[C@H](CO)[C@@H](O)[C@H](O)[C@H]4O)[C@@H]2CC[C@]1(O[C@@H]1O[C@H](CO)[C@@H](O)[C@H](O)[C@H]1O[C@@H]1O[C@H](CO)[C@@H](O)[C@H](O)[C@H]1O)C3 [Stevioside],Bitter
8,Rebaudioside B,Bitter
9,Rebaudioside C,Bitter
